These are yes or no findings as the source states them, for the method shown. Binding seen in cells or lysates may run through a third protein. Binding calls can cover weak binding; strength is not graded here.
How the values were obtained:
[1] = biological target: T1, Transmembrane-4 L-six family member-1 (TM4SF1), endogenous (human (endogenous in Eca109 and ESCC patient tissue)) (UniProt P30408); test: co-IP; endogenous TM4SF1 immunoprecipitated with anti-TM4SF1 antibody and protein-A/G PLUS beads from Eca109 cells cultured with or without laminin-coating; 0.1% Triton TBS (20 mM Tris-HCl pH 7.4, 150 mM NaCl), 4 °C; blots for integrin α6, β4, β1
T1 sequence: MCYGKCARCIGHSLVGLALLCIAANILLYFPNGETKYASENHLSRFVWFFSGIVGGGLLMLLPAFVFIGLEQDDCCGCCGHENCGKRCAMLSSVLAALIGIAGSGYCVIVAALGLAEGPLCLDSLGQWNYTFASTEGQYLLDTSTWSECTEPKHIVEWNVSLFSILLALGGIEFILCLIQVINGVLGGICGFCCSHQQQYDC

[2] = biological target: T1, Transmembrane-4 L-six family member-1 (TM4SF1), endogenous (human (endogenous in Eca109 and ESCC patient tissue)); test: co-IP; endogenous TM4SF1 immunoprecipitated with anti-TM4SF1 antibody and protein-A/G PLUS beads from homogenized ESCC patient tissue lysate; 0.1% Triton TBS (20 mM Tris-HCl pH 7.4, 150 mM NaCl), 4 °C; blots for integrin α6, β4, β1

For integrin α6 (receptor), the binding [1] was “binds” and the binding [2] was “binds”.

Source: article PMC9283456
